No constants are given. Whether binding was seen depends on the method and setting. In cells and extracts the contact can be indirect. For some assays here: Binding calls can cover weak binding; strength is not graded here. Sequences can lack the tags named with a protein.
T1: 3Flag tagged RNF185 (human) (UniProt Q96GF1)
T1 sequence: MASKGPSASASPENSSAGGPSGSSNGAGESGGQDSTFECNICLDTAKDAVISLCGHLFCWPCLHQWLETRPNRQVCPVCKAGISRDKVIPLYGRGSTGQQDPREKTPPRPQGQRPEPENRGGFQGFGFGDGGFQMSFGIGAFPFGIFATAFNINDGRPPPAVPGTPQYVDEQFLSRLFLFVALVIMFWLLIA

B1: 2HA tagged BNIP1 (protein, UniProt Q12981 1-228)
chain: MAAPQDVHVRICNQEIVKFDLEVKALIQDIRDCSGPLSALTELNTKVKEKFQQLRHRIQDLEQLAKEQDKESEKQLLLQEVENHKKQMLSNQASWRKANLTCKIAIDNLEKAELLQGGDLLRQRKTTKESLAQTSSTITESLMGISRMMAQQVQQSEEAMQSLVTSSRTILDANEEFKSMSGTIQLGRKLITKYNRRELTDKLLIFLALALFLATVLYIVKKRLFPFL

Key:
[1] = biological target: T1, 3Flag tagged RNF185 (human); assay: co-IP; 293T cells co-transfected with a 3Flag tagged and a 2HA tagged construct; 24 h later lysates (50 mM Tris-HCl pH 7.5, 150 mM NaCl, 1 mM EDTA, 1% Triton X-100, 10% glycerol) precipitated with anti-Flag conjugated beads and blotted with anti-Flag and anti-HA
[2] = biological target: RING domain mutated RNF185 (human) (UniProt Q96GF1); assay: as above

Molecule | binding [1] | binding [2]
dCC mutant of BNIP1 (from UniProt Q12981) | no binding | –
B1 | – | binds

From article PMC3170314
